# Measurements as given in patent US8633246B2, “Omega-3 fatty acids for osteoarthritis” (Hill's Pet Nutrition, Inc., priority 2003, dated 2014).
# At least one compound was matched to its structure with a doubt left.
# Tests used:
# [1] = test system: canine articular cartilage explants; experiment: Glycosaminoglycan (GAG) release from cultured canine cartilage explants; type: cell-based, dog
# Method: This example illustrates the release of glycosaminoglycan elicited by omega-3 fatty acids in cultured canine cartilage tissue.
# Articular cartilage was obtained from left and right stifles (both femoral condyles and tibial plateau) of dogs. Cartilage explants cultured for 3 days in medium with 10% fetal bovine serum, then washed 3 times in serum free medium. Explants then cultured for 6 days in serum free medium containing 0, 100 or 300 μg/ml n3 fatty acid (EPA, ALA or DHA). After this period in fatty acid medium, all explants were washed 3 times in fatty acid free/serum free medium. Explants were then cultured individually for 4 days in 1 ml of fatty acid and serum free medium containing no additives (C), 10^−6M retinoic acid (RA) or 50 ng/ml oncostatin M (OSM). Note that not all treatments were possible on all dogs because of cartilage availability. The release of proteoglycan into the medium (μg/mg wet weight) was measured at the termination of culture. In the tables below, the mean and standard deviation of glycosaminoglycan (GAG) release for the triplicate cultures for each of the 4 dogs are given. In addition, the media lactate (μg/mg wet weight) concentrations were given for each treatment.
# [2] = test system: canine cartilage; experiment: Proteoglycan synthesis, 35SO4 incorporation into cartilage matrix; type: cell-based, dog; settings: 100 μg/ml
# Method: To assess the potential effect of n-3 fatty acids on protein and proteoglycan metabolism in canine cartilage, cultures were set up as described in Example 1 except for the final 4 days of culture, no catabolic stimuli were added (i.e., all “control” cultures). During the final 24 hours of culture (1) ^35SO4, or (ii) ^35S-methionine and ^35S-cysteine, were added to the medium to radiolabel newly synthesized proteoglycans and proteins, respectively. The incorporation of radiolabel into the cartilage matrix was measured at the termination of culture. No attempt was made to quantitate loss of radiolabelled material from the cartilage over the 24-hour labeling period. The mean and standard deviation of the incorporation of ^35SO4 (“PG”) or ^35S-methionine and ^35S-cysteine (“PROT”) as DPM/mg wet weight are shown in Table 5 below, […]
# [3] = test system: aggrecanase-1; experiment: Reverse transcription-PCR mRNA expression in canine articular cartilage explants; type: cell-based, dog; settings: unstimulated canine articular cartilage explants
# [4] = test system: aggrecanase-2; experiment: as above; type: cell-based, dog; settings: unstimulated canine articular cartilage explants
# [5] = test system: dogs diagnosed with osteoarthritis; experiment: Study #3 veterinary clinical assessment; type: in vivo, dog; settings: refers to later examples
SMILES,"change in GAG release ([1]; Dog 2, OSM treated cultures)","change in GAG release ([1]; Dog 1, 100 μg/ml, OSM treated cultures)","change in GAG release ([1]; Dog 1, 300 μg/ml, RA and OSM treated cultures)","change in GAG release ([1]; Dog 4, 300 μg/ml, RA treated cultures)",induced release of glycosaminoglycan (GAG) from the cartilage ([1]; articular knee cartilage explant),proteoglycan synthesis and incorporation [2],mRNA message for aggrecanase-1 [3],mRNA message for aggrecanase-2 [4],dose response of anti-arthritic effect [5]
"CC/C=C\C/C=C\C/C=C\C/C=C\C/C=C\C/C=C\CCC(=O)O [DHA, Docosahexaenoic acid]",not ALA or DHA significantly decreased,–,–,–,–,–,–,–,–
"CC/C=C\C/C=C\C/C=C\C/C=C\C/C=C\CCCC(=O)O [EPA, Eicosapentaenoic acid]",significantly decreased,significant decrease,significant decrease,significantly decreased,significantly decrease,significantly increased,reduce the mRNA message,reduce the mRNA message,"the greater the EPA, the greater the anti-arthritic effect"
